PubChem BioAssay AID652259 – Drosophila RNAi Screening Center | 2013
Screen: 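Knock-downs that push a Wingless-driven reporter up or down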 (primary screen). Cell system: Drosophila clone 8 imaginal disc epithelial cells. Knock-down reagent: long dsRNA against Drosophila genes. Challenge: pathway stimulated by co-transfected Wingless expression plasmid. Measured: 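Dual luciferase reads per well after Wingless plasmid stimulation: reporter firefly light and Renilla control light; activity is firefly divided by Renilla, a ratio not deposited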. Reading the numbers: firefly reporter light: higher = more Wg reporter light, before normalisation; Renilla control light: higher = more transfected or surviving cells. Active means: 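a knock-down is a candidate when at least two out of four statistical tests show it departing from its plate mean; one test alone signals a weak candidate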. Meaning of the calls: active = candidate regulator (raises or lowers reporter); inactive = not a candidate.
The screen tested about 22,000 reagents; this is a random part of those that have a named target and a result. In the full data, 233 (1.1%) were called active. 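Light values are raw, unnormalised plate reads; the ratio scores behind the reporter calls were not deposited.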 The numbers tell different reagents against one gene apart. A plus sign joins genes that one reagent is predicted to hit. Not given: the amount of reagent, the time to read-out, the dose of the treatment.

| reporter change call, replicate 1 | firefly reporter light, replicate 1 | firefly reporter light, replicate 2 | Renilla control light, replicate 1 | Renilla control light, replicate 2 | call | predicted target | dsRNA no. |
| --- | --- | --- | --- | --- | --- | --- | --- |
| – | 3636 | – | 1771 | – | inactive | Neos (GeneID 38795) | 1 |
| – | 17899 | – | 11837 | – | inactive | Alr (GeneID 32991) | 1 |
| – | 15339 | – | 4061 | – | inactive | Hug (GeneID 41547) | 1 |
| – | 12998 | – | 7248 | – | inactive | CG30287 (GeneID 246530) | 1 |
| – | 12531 | – | 11724 | – | inactive | mbc (GeneID 42817) | 1 |
| – | 1968 | 6249 | 793 | 2466 | inactive | lbm (GeneID 35623) | 1 |
| – | 4608 | 16418 | 1337 | 5520 | inactive | CG1690 (GeneID 36004) | 1 |
| – | 14565 | – | 4983 | – | inactive | Su(z)12 (GeneID 48071) | 1 |
| – | 17185 | – | 3328 | – | inactive | CG10324 (GeneID 42028) | 1 |
| – | 8.24e5 | 8.61e5 | 2.24e5 | 2.37e5 | inactive | CG33062 (GeneID 318840) | 1 |
| – | 19367 | – | 3110 | – | inactive | CG6901 (GeneID 41977) | 1 |
| – | 13969 | – | 3895 | – | inactive | CG18284 (GeneID 34460) | 1 |
| – | 2779 | 5653 | 1016 | 2953 | inactive | CG15143 (GeneID 35062) | 1 |
| – | 6848 | – | 1840 | – | inactive | cora (GeneID 37205) | 1 |
| – | 15963 | – | 12832 | – | inactive | Cyp6t2Psi (GeneID 3772355) | 1 |
| – | 3260 | 9099 | 656 | 2269 | inactive | RpL37-2 (GeneID 37669) | 1 |
| – | 16195 | – | 3872 | – | inactive | stan (GeneID 36125) | 1 |
| – | 3322 | 6458 | 592 | 2620 | inactive | stan (GeneID 36125) | 2 |
| – | 4093 | 11169 | 923 | 2072 | inactive | RpL21 (GeneID 35453) | 1 |
| – | 13458 | – | 4556 | – | inactive | Toll-9 (GeneID 40245) | 1 |
| – | 4541 | 10564 | 1586 | 3440 | inactive | GABA-B-R2 (GeneID 42561) | 1 |
| Wg reporter activity lowered | 3105 | – | 1491 | – | inactive | hrg (GeneID 49636) | 1 |
| – | 2907 | 8530 | 770 | 1504 | inactive | btz (GeneID 43331) | 1 |
| – | 10724 | – | 2557 | – | inactive | CG7879 (GeneID 38184) | 1 |
| – | 1688 | 7443 | 608 | 2740 | inactive | COX4L (GeneID 35491) | 1 |
| – | 3000 | 9909 | 1131 | 3307 | inactive | CG42819 (GeneID 10178852) | 1 |
| – | 1393 | 5925 | 822 | 2117 | inactive | CG4658 (GeneID 34325) | 1 |
| – | 3331 | – | 1179 | – | inactive | CG3526 (GeneID 31277) | 1 |
| – | 17900 | – | 13744 | – | inactive | CG3526 (GeneID 31277) | 2 |
| – | 14162 | – | 3012 | – | inactive | TotB (GeneID 42474) | 1 |
| – | 4995 | – | 2067 | – | inactive | CG10638 (GeneID 39424) | 1 |
| – | 1664 | 6048 | 705 | 2729 | inactive | twz (GeneID 37456) | 1 |

Part of the list above in another layout:
"reporter change call, replicate 1","firefly reporter light, replicate 1","firefly reporter light, replicate 2","Renilla control light, replicate 1","Renilla control light, replicate 2",call,predicted target,dsRNA no.
,8.24e5,8.61e5,2.24e5,2.37e5,inactive,CG33062 (GeneID 318840),1
,19367,,3110,,inactive,CG6901 (GeneID 41977),1
,13969,,3895,,inactive,CG18284 (GeneID 34460),1
,2779,5653,1016,2953,inactive,CG15143 (GeneID 35062),1
,6848,,1840,,inactive,cora (GeneID 37205),1
,15963,,12832,,inactive,Cyp6t2Psi (GeneID 3772355),1
,3260,9099,656,2269,inactive,RpL37-2 (GeneID 37669),1

The list goes on:
| reporter change call, replicate 1 | firefly reporter light, replicate 1 | firefly reporter light, replicate 2 | Renilla control light, replicate 1 | Renilla control light, replicate 2 | call | predicted target | dsRNA no. |
| --- | --- | --- | --- | --- | --- | --- | --- |
| – | 9107 | – | 3968 | – | inactive | Arts + Apl | 1 |
| – | 5196 | – | 2496 | – | inactive | Vps15 (GeneID 41096) | 1 |
| – | 33393 | – | 7096 | – | inactive | CG15498 (GeneID 42548) | 1 |
| – | 13158 | – | 3377 | – | inactive | CG7656 (GeneID 39691) | 1 |
| – | 9625 | – | 1997 | – | inactive | CG4009 (GeneID 42054) | 1 |
| – | 11316 | – | 3785 | – | inactive | Hsp60B (GeneID 48572) | 1 |
| – | 21002 | – | 12148 | – | inactive | CG1695 (GeneID 33046) | 1 |
| – | 7977 | – | 3084 | – | inactive | Anp (GeneID 43595) | 1 |
| – | 5660 | – | 2086 | – | inactive | mRpS28 (GeneID 37136) | 1 |
| – | 14672 | – | 2891 | – | inactive | Desat1 (GeneID 117369) | 1 |
| – | 18114 | – | 5194 | – | inactive | CG14440 (GeneID 31610) | 1 |
| – | 2482 | – | 779 | – | inactive | CG30020 (GeneID 36156) | 1 |
| – | 2333 | 6005 | 1160 | 3704 | inactive | CG30020 (GeneID 36156) | 2 |
| – | 18452 | – | 5181 | – | inactive | Cyp6a17 (GeneID 45556) | 1 |
| – | 23857 | – | 14615 | – | inactive | inaE (GeneID 32343) | 1 |
| – | 1861 | 6375 | 1121 | 2583 | inactive | inaE (GeneID 32343) | 2 |
| – | 21869 | 7.23e5 | 19163 | 3.27e5 | inactive | inaE (GeneID 32343) | 3 |
| – | 25673 | – | 14871 | – | inactive | inaE (GeneID 32343) | 4 |
| – | 12662 | – | 13056 | – | inactive | alrm (GeneID 43074) | 1 |
| – | 4594 | – | 1761 | – | inactive | CG1239 (GeneID 40706) | 1 |
| – | 12448 | – | 3975 | – | inactive | Fmo-1 (GeneID 37814) | 1 |
| – | 7744 | – | 2714 | – | inactive | POLDIP2 (GeneID 40655) | 1 |
| – | 12004 | – | 3316 | – | inactive | CG12105 (GeneID 38190) | 1 |
| – | 12232 | – | 6338 | – | inactive | Chsy (GeneID 32497) | 1 |
| – | 22674 | 7.59e5 | 9353 | 2.93e5 | inactive | Chsy (GeneID 32497) | 2 |
| – | 2618 | – | 1321 | – | inactive | mthl14 (GeneID 318046) | 1 |
| – | 10344 | – | 2325 | – | inactive | CG10205 (GeneID 36650) | 1 |
| – | 12029 | – | 4205 | – | inactive | c(2)M (GeneID 34964) | 1 |
| – | 4916 | – | 1708 | – | inactive | sgg (GeneID 31248) | 1 |
| – | 4839 | – | 1547 | – | inactive | sgg (GeneID 31248) | 2 |
| – | 16556 | – | 12684 | – | inactive | sgg (GeneID 31248) | 3 |
| – | 3249 | 7757 | 1042 | 2771 | inactive | CG14339 (GeneID 33286) | 1 |
| – | 13956 | – | 4736 | – | inactive | Paris (GeneID 33657) | 1 |
| – | 11857 | – | 3920 | – | inactive | ktub (GeneID 37400) | 1 |
| – | 5165 | – | 2572 | – | inactive | P5CDh1 (GeneID 40434) | 1 |
| – | 11905 | – | 6104 | – | inactive | Fur2 (GeneID 32604) | 1 |
| – | 21993 | – | 9773 | – | inactive | egh (GeneID 31239) | 1 |
| – | 2011 | 9099 | 1275 | 4024 | inactive | CG9263 (GeneID 34770) | 1 |
| – | 3185 | – | 1330 | – | inactive | CG4080 (GeneID 39079) | 1 |
| – | 3524 | 9031 | 1008 | 3392 | inactive | pnr (GeneID 44849) | 1 |
| – | 1856 | 3394 | 720 | 1305 | inactive | apolpp (GeneID 43827) | 1 |
| – | 3028 | 6192 | 378 | 2352 | inactive | pain (GeneID 37985) | 1 |
| – | 8057 | – | 1203 | – | inactive | CG42724 (GeneID 40785) | 1 |
| – | 5.95e5 | 6.96e5 | 2.46e5 | 2.70e5 | inactive | CG42724 (GeneID 40785) | 2 |
| – | 2353 | 5328 | 1031 | 2402 | inactive | Mt2 (GeneID 34632) | 1 |
| – | 12348 | – | 4121 | – | inactive | CG10194 (GeneID 35231) | 1 |
| – | 12722 | – | 13729 | – | inactive | Root (GeneID 42860) | 1 |
| – | 17277 | – | 3473 | – | inactive | CG15864 (GeneID 50001) | 1 |
| – | 13536 | – | 3168 | – | inactive | CG12035 (GeneID 38217) | 1 |
| – | 7232 | – | 3132 | – | inactive | CG17746 (GeneID 38400) | 1 |
| – | 2104 | 9173 | 867 | 3140 | inactive | CG2247 (GeneID 32111) | 1 |
| – | 19049 | – | 15224 | – | inactive | CG3744 (GeneID 42972) | 1 |
| – | 9532 | – | 3882 | – | inactive | Ssl2 (GeneID 43424) | 1 |
| – | 5.31e5 | 6.66e5 | 2.32e5 | 3.10e5 | inactive | Ssl2 (GeneID 43424) | 2 |
| – | 15314 | – | 6024 | – | inactive | slmo + CG34179 | 1 |
| – | 12320 | – | 10672 | – | inactive | Arf4 (GeneID 43823) | 1 |
| – | 2336 | – | 1912 | – | inactive | CG4884 (GeneID 43357) | 1 |
| – | 6636 | – | 2640 | – | inactive | CG4452 (GeneID 39069) | 1 |
| – | 17954 | – | 9168 | – | inactive | CG11106 (GeneID 32062) | 1 |
| – | 22838 | – | 11045 | – | inactive | Atg8a (GeneID 32001) | 1 |
| – | 8500 | – | 3696 | – | inactive | CG13671 (GeneID 38932) | 1 |
